Results are given in words; binding and its absence hold for the method and conditions named. Some entries that bind do so weakly or less than the wild type.
Molecular target: α-CT coiled coil domain (30 kDa non-catalytic domain) fused to GAL4 DNA-binding domain (Arabidopsis thaliana) (UniProt P04386+Q9LD43)
Assay: yeast two-hybrid screen of Arabidopsis cDNA library, α-CT coiled-coil domain as bait

Chains of the proteins cited; added tags and fusions are not shown. Lines headed by an entry give the natural chain unless they say otherwise; changes in a name come on top.
UniProt P04386: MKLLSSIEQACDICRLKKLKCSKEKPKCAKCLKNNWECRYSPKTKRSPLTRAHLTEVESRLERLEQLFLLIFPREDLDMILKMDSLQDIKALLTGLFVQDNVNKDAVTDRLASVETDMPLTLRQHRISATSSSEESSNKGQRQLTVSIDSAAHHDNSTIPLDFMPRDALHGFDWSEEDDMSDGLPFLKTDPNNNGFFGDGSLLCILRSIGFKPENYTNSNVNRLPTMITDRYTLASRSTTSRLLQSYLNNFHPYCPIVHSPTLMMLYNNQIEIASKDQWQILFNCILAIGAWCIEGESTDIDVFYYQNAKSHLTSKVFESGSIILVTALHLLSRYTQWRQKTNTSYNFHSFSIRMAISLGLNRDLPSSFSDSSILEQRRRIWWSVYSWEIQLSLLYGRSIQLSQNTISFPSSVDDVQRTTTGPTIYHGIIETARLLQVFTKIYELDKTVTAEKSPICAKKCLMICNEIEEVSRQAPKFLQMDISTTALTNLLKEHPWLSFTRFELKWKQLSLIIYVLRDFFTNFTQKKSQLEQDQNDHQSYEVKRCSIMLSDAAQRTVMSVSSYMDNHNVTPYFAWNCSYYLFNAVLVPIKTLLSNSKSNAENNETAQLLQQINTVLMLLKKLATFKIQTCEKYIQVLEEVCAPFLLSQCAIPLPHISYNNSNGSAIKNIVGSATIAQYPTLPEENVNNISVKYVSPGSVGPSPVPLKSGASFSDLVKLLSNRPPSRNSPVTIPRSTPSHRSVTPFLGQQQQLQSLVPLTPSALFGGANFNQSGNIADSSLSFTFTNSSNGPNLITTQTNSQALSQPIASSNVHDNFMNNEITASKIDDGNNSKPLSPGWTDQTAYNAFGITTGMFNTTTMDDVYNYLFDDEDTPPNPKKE
UniProt Q9LD43: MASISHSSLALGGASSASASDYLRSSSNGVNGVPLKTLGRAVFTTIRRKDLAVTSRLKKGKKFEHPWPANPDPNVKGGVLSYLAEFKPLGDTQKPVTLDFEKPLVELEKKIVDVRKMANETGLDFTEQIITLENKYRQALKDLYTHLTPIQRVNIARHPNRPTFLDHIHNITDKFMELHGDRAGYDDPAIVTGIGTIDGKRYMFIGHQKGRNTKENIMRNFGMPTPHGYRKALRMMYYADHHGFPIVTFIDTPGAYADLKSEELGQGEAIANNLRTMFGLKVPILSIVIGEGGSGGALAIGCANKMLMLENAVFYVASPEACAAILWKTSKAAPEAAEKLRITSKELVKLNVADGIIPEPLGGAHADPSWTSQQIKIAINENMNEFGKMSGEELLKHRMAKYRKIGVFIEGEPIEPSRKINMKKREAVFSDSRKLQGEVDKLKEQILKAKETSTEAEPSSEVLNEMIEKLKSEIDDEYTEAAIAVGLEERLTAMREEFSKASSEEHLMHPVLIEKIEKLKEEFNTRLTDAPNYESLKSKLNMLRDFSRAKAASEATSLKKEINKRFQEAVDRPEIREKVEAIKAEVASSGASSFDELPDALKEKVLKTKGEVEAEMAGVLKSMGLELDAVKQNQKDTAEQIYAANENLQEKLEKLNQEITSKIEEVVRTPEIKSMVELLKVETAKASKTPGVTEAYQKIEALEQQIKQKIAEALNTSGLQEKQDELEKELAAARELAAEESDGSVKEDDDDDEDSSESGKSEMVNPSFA

B1: CTI1 (positive clone of the Arabidopsis cDNA library in the yeast two-hybrid screen) (protein, not shown: large carriers)
chain: MASLSSTSLSLPKNSHQLHPSSGFSLNPNARCVSVSFGLNHSNKLHISAPRTKRILTIQSAYRDDDGSGSTGLFVGGFILGGLIVGALGCVYAPQISKAIAGADRKDLMRKLPKFIYDEEKALEKTRKVLAEKIAQLNSAIDDVSSQLKSEDTPNGAALSTDEIEATA
  binding: binds

Reference: patent US20250223573A1
